Source: the supplement of paper PMC6078165
Values are relative to the signal before dosing, not to a vehicle control; the signal also falls without drug.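 Labels refer to human fibroblasts, largely primary: uterine (C12385, HUF), lung (H6013), bone (Hs27A), adrenal (HADF), skin (WS1), plus mammary HMF and breast cancer-associated Hs343T. Cancer lines are basal-like or mesenchymal-like triple-negative breast cancer. The paper counts as hits responses shifting over 3x the replicate standard deviation. The tissue of the other fibroblasts is not given here.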

Tested on: MDAMB231
Assay: relative JC-1 red fluorescence (viability) vs pre-drug, coculture with fibroblast (fraction); higher = more viable cancer cells
Method: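 JC-1 labelled TNBC cells cocultured 1:1 (1,500 cells each) with CellTrace Violet stained primary or stromal fibroblasts in 384-well plates in FluoroBrite medium, treated with one of 42 anticancer drugs at 0.1, 1, 10 or 100 uM. JC-1 red fluorescence (mitochondrial integrity in cancer cells only) was read by plate reader every 8 h for 72 h. Values are normalised to each well's pre-drug value. The stock of one drug was tenfold lower, so its dose labels may be too high.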

O=C(O)C1(C(=O)O)CCC1.[NH2-].[NH2-].[Pt+2] [Carboplatin]
relative JC-1 red fluorescence
Settings	8 h	16 h	24 h	32 h	40 h	48 h	56 h	64 h	72 h
10 µM, coculture fibroblast: C12385	0.801	0.817	0.6373	0.671	0.598	0.563	0.509	0.488	0.459
10 µM, coculture fibroblast: H6013	0.904	0.8438	0.811	0.7855	0.739	0.703	0.692	0.6585	0.63
10 µM, coculture fibroblast: H6019	0.839	0.84	0.749	0.79	0.754	0.722	0.665	0.625	0.574
10 µM, coculture fibroblast: H6076	0.892	0.794	0.701	0.676	0.623	0.577	0.543	0.53	0.516
10 µM, coculture fibroblast: H6231	0.896	0.819	0.757	0.707	0.675	0.647	0.5987	0.576	0.545
10 µM, coculture fibroblast: HADF	0.894	0.8506	0.7942	0.7606	0.713	0.653	0.638	0.614	0.563
10 µM, coculture fibroblast: HCFa	0.8927	0.8273	0.787	0.74355	0.691	0.647	0.6195	0.5879	0.5328
10 µM, coculture fibroblast: HCPF	0.91	0.808	0.706	0.676	0.605	0.561	0.515	0.483	0.453
10 µM, coculture fibroblast: HHSteC	0.919	0.859	0.81	0.764	0.721	0.695	0.657	0.624	0.587
10 µM, coculture fibroblast: HMF	0.9113	0.8225	0.744	0.705	0.657	0.616	0.572	0.543	0.512
10 µM, coculture fibroblast: HPFa	0.929	0.89	0.84	0.787	0.755	0.725	0.672	0.633	0.565
10 µM, coculture fibroblast: HUF	0.8327	0.733	0.696	0.587	0.502	0.474	0.416	0.396	0.363
10 µM, coculture fibroblast: Hs5	0.952	0.87	0.779	0.719	0.661	0.603	0.549	0.523	0.495
10 µM, coculture fibroblast: Hs27A	0.8835	0.83475	0.7922	0.7671	0.709	0.65	0.652	0.635	0.587
10 µM, coculture fibroblast: Hs343T	0.917	0.821	0.72	0.675	0.616	0.57	0.512	0.481	0.457
10 µM, coculture fibroblast: WS1	0.772	0.704	0.608	0.574	0.508	0.468	0.413	0.3962	0.36584
100 µM, coculture fibroblast: C12385	0.739	0.685	0.725	0.639	0.606	0.568	0.539	0.565	0.557
100 µM, coculture fibroblast: H6013	0.902	0.868	0.831	0.821	0.788	0.777	0.755	0.734	0.688
100 µM, coculture fibroblast: H6019	0.779	0.73	0.792	0.725	0.703	0.698	0.667	0.675	0.651
100 µM, coculture fibroblast: H6076	0.791	0.736	0.7344	0.7259	0.7144	0.6982	0.704	0.707	0.72
100 µM, coculture fibroblast: H6231	0.892	0.82	0.761	0.729	0.676	0.65	0.617	0.596	0.575
100 µM, coculture fibroblast: HADF	0.882	0.868	0.831	0.802	0.767	0.731	0.7062	0.69	0.629
100 µM, coculture fibroblast: HCFa	0.8812	0.83484	0.791	0.74	0.702	0.669	0.633	0.613	0.572
100 µM, coculture fibroblast: HCPF	0.8053	0.718	0.671	0.66	0.6141	0.585	0.561	0.535	0.5253
100 µM, coculture fibroblast: HHSteC	0.901	0.863	0.817	0.775	0.735	0.717	0.667	0.652	0.608
100 µM, coculture fibroblast: HMF	0.879	0.815	0.784	0.767	0.729	0.685	0.669	0.642	0.609
100 µM, coculture fibroblast: HPFa	0.9125	0.8963	0.8697	0.8181	0.7985	0.769	0.719	0.694	0.6551
100 µM, coculture fibroblast: HUF	0.826	0.749	0.789	0.675	0.617	0.618	0.57	0.586	0.573
100 µM, coculture fibroblast: Hs5	0.847	0.7855	0.748	0.709	0.674	0.625	0.613	0.599	0.575
100 µM, coculture fibroblast: Hs27A	0.87628	0.8488	0.814	0.792	0.751	0.72	0.717	0.714	0.668
100 µM, coculture fibroblast: Hs343T	0.8439	0.76	0.698	0.654	0.594	0.55	0.507	0.486	0.454
100 µM, coculture fibroblast: WS1	0.732	0.671	0.664	0.583	0.543	0.525	0.488	0.494	0.478
